Measured values from article PMC11222469.
No constants are given. Whether binding was seen depends on the method and setting. Binding seen in cells or lysates may run through a third protein. These calls come from enrichment with a bait or labelling near it, and not all partners need be listed.

By UniProt entry, the sequences of proteins in these tests, tags left out.
UniProt Q9Y4B6: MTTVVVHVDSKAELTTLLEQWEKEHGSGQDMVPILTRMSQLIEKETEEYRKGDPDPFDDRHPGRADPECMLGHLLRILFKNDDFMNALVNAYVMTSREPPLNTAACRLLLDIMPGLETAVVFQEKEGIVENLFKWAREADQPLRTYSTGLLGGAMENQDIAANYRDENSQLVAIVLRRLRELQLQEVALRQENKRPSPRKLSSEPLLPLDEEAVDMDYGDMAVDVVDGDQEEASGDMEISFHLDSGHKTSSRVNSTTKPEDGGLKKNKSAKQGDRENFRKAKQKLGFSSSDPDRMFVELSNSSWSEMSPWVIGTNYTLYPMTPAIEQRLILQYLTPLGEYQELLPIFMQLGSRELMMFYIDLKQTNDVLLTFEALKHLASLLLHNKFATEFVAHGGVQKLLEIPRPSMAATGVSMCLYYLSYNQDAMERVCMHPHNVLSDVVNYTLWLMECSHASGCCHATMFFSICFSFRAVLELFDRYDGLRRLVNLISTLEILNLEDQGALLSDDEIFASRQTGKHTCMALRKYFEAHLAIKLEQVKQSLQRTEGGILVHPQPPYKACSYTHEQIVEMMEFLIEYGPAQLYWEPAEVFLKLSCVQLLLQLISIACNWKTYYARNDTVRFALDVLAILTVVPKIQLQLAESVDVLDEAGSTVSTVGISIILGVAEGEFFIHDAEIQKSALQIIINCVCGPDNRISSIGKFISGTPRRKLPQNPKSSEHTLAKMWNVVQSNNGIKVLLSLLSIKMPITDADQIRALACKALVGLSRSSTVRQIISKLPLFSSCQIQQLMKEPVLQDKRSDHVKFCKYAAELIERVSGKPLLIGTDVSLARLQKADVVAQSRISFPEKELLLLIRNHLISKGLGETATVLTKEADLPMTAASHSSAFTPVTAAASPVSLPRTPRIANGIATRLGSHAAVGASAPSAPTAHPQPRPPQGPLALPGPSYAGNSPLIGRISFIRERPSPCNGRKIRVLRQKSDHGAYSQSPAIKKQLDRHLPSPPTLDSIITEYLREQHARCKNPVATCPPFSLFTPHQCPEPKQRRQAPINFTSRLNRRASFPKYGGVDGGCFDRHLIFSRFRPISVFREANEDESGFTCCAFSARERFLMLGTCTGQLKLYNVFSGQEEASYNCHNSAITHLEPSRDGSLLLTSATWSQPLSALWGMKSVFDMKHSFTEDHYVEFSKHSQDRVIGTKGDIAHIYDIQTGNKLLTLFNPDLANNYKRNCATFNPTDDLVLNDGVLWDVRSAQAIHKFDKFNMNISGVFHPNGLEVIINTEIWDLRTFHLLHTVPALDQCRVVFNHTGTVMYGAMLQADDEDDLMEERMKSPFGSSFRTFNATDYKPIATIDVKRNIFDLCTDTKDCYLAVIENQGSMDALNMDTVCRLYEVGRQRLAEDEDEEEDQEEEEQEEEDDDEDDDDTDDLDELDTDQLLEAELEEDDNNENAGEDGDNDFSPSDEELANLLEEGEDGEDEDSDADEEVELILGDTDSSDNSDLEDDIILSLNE

Legend:
[1] = target: HA-tagged TurboID-DCAF15 (human) (UniProt Q66K64); assay: proximity labelling; MV4-11 cells stably expressing HA-tagged TurboID-DCAF15, DMSO or 5 uM MLN4924 for 6 h, 50 uM biotin for final 2 h; streptavidin magnetic beads, NP-40 buffer; LC-MS/MS; n = 1 each
[2] = target: FLAG-tagged DCAF15 (DDB1- and Cul4-Associated Factor 15) (human) (UniProt Q66K64); assay: affinity purification with mass spectrometry; FLAG-immunoprecipitants from HEK293T cells transiently over-expressing FLAG-DCAF15 against FLAG empty vector; NP-40 buffer; in-solution digestion, LC-MS/MS; n = 1 each

VprBP (from UniProt Q9Y4B6 1-1507)
binding [1]: binds | binding [2]: binds
